Experiments:
[1] = general procedure: Fmoc solid-phase peptide synthesis; Wang resin; MSNT / 1-methyl imidazole (loading of first Fmoc-Gly); conditions: whole synthesis, scale of the general procedure 50 gm Wang resin, 30 gm Tentagel SPHB resin, trifluoro acetate salt, run 1
[2] = general procedure: Fmoc solid-phase peptide synthesis; Wang resin (Example 1); Tentagel SPHB resin (Example 2); MSNT / 1-methyl imidazole (loading of first Fmoc-Gly); conditions: whole synthesis, scale of the general procedure 50 gm Wang resin, 30 gm Tentagel SPHB resin, trifluoro acetate salt
[3] = general procedure: Fmoc solid-phase peptide synthesis; Tentagel SPHB resin; MSNT / 1-methyl imidazole (loading of first Fmoc-Gly); conditions: whole synthesis, scale of the general procedure 50 gm Wang resin, 30 gm Tentagel SPHB resin, trifluoro acetate salt, run 2

Liraglutide
crude HPLC purity [1]: 27.5% | final HPLC purity ([2]; run 1): average 97% | final HPLC purity ([2]; run 2): average 97% | final HPLC purity ([2]; run 3): >96% | final HPLC purity ([2]; run 4): >96% | crude HPLC purity [3]: 36.89%

From patent publication US20170283478 (published 2017)
